# Test results reported in PubChem BioAssay AID1487 (National Center for Advancing Translational Sciences (NCATS), 2009).
# Several values for one entry are separate records, joined by “and”; a condition that tells them apart may be missing. Equal entries are not always repeated. This is one part of the list. Further columns of the screen follow, without active or inactive calls. Compounds called inactive in the main read-out are mostly missing here. Potencies come from curve fits of mixed quality, noted in brackets.
# Assay: qHTS Assay for Modulators of Lamin A Splicing
# Conditions: HeLa LMNA splicing GFP/RFP minigene ratio, 48 h
# How it was run: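 Read-out is the ratio of GFP to DsRed2 object intensity, acquired by 488 nm laser-scanning cytometry on HeLa lamin A-EGFP minigene reporter cells. Compound incubation 48 hrs at 37 °C in Opti-MEM with 2% FBS; DMSO 0.5% final.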
# [1] = measured here: RFP viability control channel
# [2] = measured here: GFP splicing reporter channel
Compound,AC50 [1],AC50 [2]
CS(=O)(=O)N1CCN(c2ccc([N+](=O)[O-])c(NCc3ccc(Cl)cc3)c2)CC1,"35.5 µM [falling, single point]",
O=C(Nc1ccccc1)/C(=C/c1cccnc1)NC(=O)c1ccco1,"7.94 µM [rising, partial curve, poor fit]",
O=C(Nc1ccccn1)c1ccc(COc2ccccc2Cl)o1,"12.6 µM [rising, partial curve, poor fit]",
Cc1ccc(S(=O)(=O)Nc2ccc(N(C)S(=O)(=O)c3ccc(C)cc3)cc2)cc1,"35.5 µM [rising, single point]","15.8 µM [rising, partial curve, poor fit]"
Cc1ccc2cc(C)c(N3CCN(c4ccccn4)CC3)nc2c1,"31.6 µM [rising, single point]",
Cc1nn(-c2ccccc2)c2[nH]c(C(F)(F)F)cc(=O)c12,"11.2 µM [rising, partial curve]",
COc1cccc2c(=O)cc(C)n(CC(=O)Nc3ccc(C)c(C)c3)c12,"11.2 µM [rising, partial curve]","8.91 µM [rising, partial curve]"
Cc1cccc(-c2cc3nc4c(c(N5CCCC(O)C5)n3n2)CCC4)c1 (stereo not given),"11.2 µM [rising, partial curve, poor fit]","10 µM [rising, partial curve, poor fit]"
N#CC(C#N)=C1C=CC=CN1/C(=C\c1ccccc1)C(=O)c1cccs1,"15.8 µM [rising, partial curve]",
Cc1nc(-c2cccnc2)sc1C(N)=O,"5.62 µM [falling, single point]","3.16 µM [falling, single point]"
COc1cccc(Cc2nc3ccccc3nc2SCC(=O)Nc2cccc(C)c2)c1,"6.31 µM [falling, single point]",
Cc1ccc(CS(=O)(=O)c2ccc(C(=O)N3CCN(c4ccccn4)CC3)cc2[N+](=O)[O-])cc1,"1.78 µM [falling, partial curve, poor fit]",
COc1ccc2cc([C@H](C)C(=O)O)ccc2c1,"2.82 nM [falling, full curve, poor fit] and 3.55 µM [rising, full curve]",
COc1ccc(NC(=S)NC(NC(=O)/C=C/c2ccccc2)C(Cl)(Cl)Cl)cc1 (stereo not given),"25.1 µM [falling, single point]","12.6 µM [falling, single point]"
C/C(=N\Nc1nnc(-c2ccccc2)c(-c2ccccc2)n1)c1cccc([N+](=O)[O-])c1,,"35.5 µM [falling, single point]"
Cc1cc(C)nc(N/N=C2/CCCC/C2=C\c2ccccc2)n1,"22.4 µM [rising, single point]","31.6 µM [rising, single point]"
O=C(CSc1nnc2c(n1)[nH]c1ccccc12)NCc1ccco1,"1.12 µM [rising, full curve]","0.501 µM [rising, full curve, poor fit]"
Cc1cc(C)nc(NS(=O)(=O)c2ccc(NC(=O)c3cc(-c4ccccc4)nc4ccccc34)cc2)n1,"31.6 µM [rising, single point]","31.6 µM [rising, single point]"
CC(Oc1ccc(Cl)cc1Cl)C(=O)N(C)c1ccccc1 (stereo not given),,"0.316 µM [rising, partial curve]"
CC(C)NC(=O)NC(=O)COc1ccc(Br)cc1Br,"35.5 µM [rising, single point]","12.6 µM [rising, single point]"
CCCN1CCN(c2nc(-c3cccs3)nc3ccccc23)CC1,"22.4 µM [rising, single point]","11.2 µM [rising, partial curve, poor fit]"
Cc1ccc(S(=O)(=O)N2CCC(C(=O)N3CCN(Cc4ccccc4)CC3)CC2)cc1,"22.4 µM [rising, single point]",
CCn1cc([N+](=O)[O-])c(C(=O)Nc2c(C)nn(Cc3cccc(F)c3)c2C)n1,,"1.58 µM [rising, partial curve, poor fit]"
Cc1ccc(CN(C(=O)c2ccc(C(C)(C)C)cc2)c2ccccn2)o1,,"7.94 µM [falling, partial curve, poor fit]"
CCn1c2ccccc2c2cc(/C=N/n3c(C)nnc3C)ccc21,"10 µM [rising, single point]",
COc1ccc(N=Cc2c(O)ccc3ccccc23)cc1,"35.5 µM [rising, single point]",
CC(C)CC(=O)Nc1ccc2nc(SCC(=O)N3CCc4ccccc43)sc2c1,,"2.82 µM [falling, full curve, poor fit]"

# Arranged by heavy-atom count (falling): three of the compounds above.
Compound,AC50 [1],AC50 [2]
COc1cccc(Cc2nc3ccccc3nc2SCC(=O)Nc2cccc(C)c2)c1,"6.31 µM [falling, single point]",
COc1cccc2c(=O)cc(C)n(CC(=O)Nc3ccc(C)c(C)c3)c12,"11.2 µM [rising, partial curve]","8.91 µM [rising, partial curve]"
O=C(Nc1ccccn1)c1ccc(COc2ccccc2Cl)o1,"12.6 µM [rising, partial curve, poor fit]",

# Later entries:

Compound,AC50 [1],AC50 [2]
O=S1(=O)CC/C(=N/Nc2ccc(C(F)(F)F)cn2)c2cc(F)ccc21,"3.16 µM [falling, partial curve, poor fit]",
COC(=O)CCc1sc(Nc2ccc(Br)cc2)nc1-c1ccc(OC)cc1,"35.5 µM [falling, single point]","25.1 µM [falling, single point]"
CCn1ccc2cc(S(=O)(=O)N3CCCN(C(=O)Nc4ccccc4F)CC3)ccc21,"0.158 µM [falling, full curve, poor fit]","0.158 µM [falling, full curve, poor fit]"
NS(=O)(=O)c1ccc(NC(=O)COC(=O)C2(c3ccccc3F)CCCC2)cc1,"14.1 µM [rising, partial curve, poor fit]",
O=C(NNC(=O)c1cccc(S(=O)(=O)N2CCc3ccccc32)c1)c1ccccc1,"7.94 µM [rising, partial curve]",
Cc1cccc(-n2ccnc2SCC(=O)Nc2cccc3ccccc23)c1,"12.6 µM [falling, partial curve, poor fit]","12.6 µM [falling, partial curve, poor fit]"
CCN(CC)c1ccc(C2=NNC(=O)CC2C)cc1[N+](=O)[O-] (stereo not given),"0.112 µM [falling, full curve]","0.158 µM [falling, full curve, poor fit]"
Cc1ccnc2nc(C(=O)OCC(=O)N(CC(C)C)CC(C)C)nn12,,"0.0158 µM [falling, full curve]"
Cc1ncoc1C(=O)Nc1ccccc1-c1ccccc1,"5.62 µM [falling, single point]",
COc1ccccc1C(=O)NNC1=C(C(=O)C(F)(F)F)CCC1,"0.251 µM [falling, partial curve]","0.708 µM [falling, partial curve]"
CC1=NN(C(N)=S)C(=O)C1N=Nc1ccccc1 (stereo not given),"3.98 µM [falling, partial curve, poor fit]",
COC(=O)c1ccc(COc2ccc(-c3nnn(CC(=O)NC(C)(C)C)n3)cc2)cc1,,"3.16 µM [falling, partial curve]"
O=C(NO)C1CC2C=CC1C2 (stereo not given),,"8.91 µM [falling, partial curve]"
C[C@@H]1C[C@H](Nc2ccccc2)c2ccccc2N1C(=O)c1cccnc1,"11.2 µM [rising, partial curve, poor fit]","0.398 µM [rising, full curve, poor fit]"
Oc1ccc(Cl)cc1C=Nc1ccc2c3c(cccc13)CC2,"0.794 µM [rising, full curve, poor fit]",
O=C1OCCN1C(=O)[C@H]1[C@H](c2ccc([N+](=O)[O-])cc2)C(c2cccc(Cl)c2)=NN1c1ccccc1,"12.6 µM [rising, partial curve, poor fit]",
CC(CCC(=O)Nc1nncs1)C(=O)O (stereo not given),"6.31 µM [rising, full curve, poor fit]",
O=[N+]([O-])c1ccccc1/C=N\N1CCN(c2ccccc2)CC1,"0.0224 µM [falling, full curve, poor fit]","0.0355 µM [falling, full curve, poor fit]"
Nc1nnc(SCC(=O)Nc2sc3c(c2C(=O)c2ccccc2)CCCC3)s1,"14.1 µM [rising, single point]",
C=CCn1c(SC)nc2sc3c(c2c1=O)CCc1ccccc1-3,"22.4 µM [rising, partial curve]","14.1 µM [rising, single point]"
COc1ccc(N(Cc2nnc3n2CCCCC3)C(=O)Nc2ccccc2)cc1,"4.47 µM [rising, single point]","5.01 µM [rising, partial curve, poor fit]"
Cc1cc(C)c2nc(N(Cc3cccnc3)C(=O)CCS(=O)(=O)c3ccccc3)sc2c1,"12.6 µM [falling, partial curve]","1.58 µM [falling, partial curve]"
S=c1[nH]nc(-c2cccs2)n1Cc1ccccc1,,"11.2 µM [rising, partial curve]"
Cc1cccc(-c2cc(C(=O)NCc3ccccn3)c3ccccc3n2)c1,"35.5 µM [rising, single point]",
CCOC(=O)c1c(NC(=O)CS(=O)(=O)c2cn(CC)c3ccccc23)sc2c1CCCCC2,"14.1 µM [rising, single point]","11.2 µM [rising, single point]"
CCOC(=O)C1=C(C)NC2=C(C(=O)c3ccccc32)C1c1ccc(O)cc1 (stereo not given),"35.5 µM [rising, single point]","31.6 µM [rising, single point]"
